The numbers were not newly measured in article PMC9040839 (mBio, 2022), which cites them from elsewhere.

pKd: −log10 of the molar value. Values joined by “and” are separate entries in the source; they are usually repeats but may differ in a detail not shown here. Identical values can stand only once.

As a reminder, the pKd is the Kd on a negative log10 scale, so that one unit is a factor of ten.

For this data set, the target named is PctC chemoreceptor. The settings on record: cited from earlier work.

Regarding `NCCCC(=O)O` [GABA, gamma-aminobutyrate], the pKd was 5.92 and 6.19.
